PubChem BioAssay AID1053209, Peter MacCallum Cancer Centre, 2014

Assay: 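Knock-downs that sensitise mouse osteosarcoma cells to doxorubicin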 (follow-up of hits)
Cell system: mouse primary osteosarcoma cells
Knock-down reagent: single siRNA against mouse genes, 25 nM (text also states 40 nM)
Duration: about 120 h (48 h before drug, then 72 h with drug)
Treatment: doxorubicin 100 nM (about IC30-40), added 48 h after transfection, for 72 h
Read-out: 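Viability measured by ATP luminescence with and without doxorubicin, each replicate scaled to non-targeting siRNA NT1, averaged over two replicates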
Reading the numbers: viability with doxorubicin, vs NT1: higher = more viable cells under doxorubicin; viability without drug, vs NT1: higher = more viable cells without drug
Call rule: 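Active when doxorubicin viability is at most 0.7 of NT1 and drug-free viability lies between 0.7 and 1.1, class LC dox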
The deposit covers about 1,580 reagents; below is a random part of them. 207 of all reagents (13%) were called active. 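Rows are single siRNAs; four siRNAs per gene were tested, a gene counting as confirmed only when at least two agree.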 A number with no mark means an inactive call. Reagents against one gene are numbered here. Further read-outs or replicates are left out here.

Gene,reagent no.,combined effect class,"viability with doxorubicin, vs NT1","viability without drug, vs NT1"
Adar,1,high viability only with doxorubicin,1.1,1.01
Adar,2,normal viability with and without drug,0.73,0.9
Adar,3,low viability only with doxorubicin; normal without drug (active),0.64,0.9
Adar,4,normal viability with and without drug,0.85,1.04
Snrpd3,1,low viability only with doxorubicin; normal without drug (active),0.62,0.88
Snrpd3,2,low viability with and without drug,0.16,0.62
Snrpd3,3,low viability with and without drug,0.1,0.29
Snrpd3,4,low viability with and without drug,0.15,0.52
Rps14,1,normal viability with and without drug,0.87,0.96
Rps14,2,low viability with and without drug,0.26,0.48
Rps14,3,low viability with and without drug,0.46,0.7
Rps14,4,low viability with and without drug,0.32,0.4
Rpl23a,1,low viability with and without drug,0.52,0.66
Rpl23a,2,low viability with and without drug,0.38,0.53
Rpl23a,3,low viability with and without drug,0.46,0.52
Rpl23a,4,low viability with and without drug,0.31,0.43
Cep55,1,normal viability with and without drug,0.8,0.9
Cep55,2,normal viability with and without drug,0.96,0.96
Cep55,3,normal viability with and without drug,0.81,0.91
Cep55,4,normal viability with and without drug,0.82,1
Sike1,1,high viability only with doxorubicin,1.14,1.02
Sike1,2,normal viability with and without drug,0.88,0.96
Sike1,3,normal viability with and without drug,0.98,0.96
Sike1,4,normal viability with and without drug,0.97,1.04
Psmc4,1,low viability only without drug,0.84,0.7
Psmc4,2,low viability with and without drug,0.36,0.41
Psmc4,3,low viability with and without drug,0.44,0.55
Psmc4,4,low viability with and without drug,0.22,0.5
Ppih,1,normal viability with and without drug,0.97,0.98
Ppih,2,low viability only with doxorubicin; normal without drug (active),0.55,0.8
Ppih,3,normal viability with and without drug,0.92,1.04
Ppih,4,normal viability with and without drug,1.04,0.95
Snrpc,1,low viability only with doxorubicin; normal without drug (active),0.37,0.74
Snrpc,2,normal viability with and without drug,0.82,0.86
Snrpc,3,normal viability with and without drug,0.73,0.8
Snrpc,4,normal viability with and without drug,0.76,0.98
Ttc1,1,normal viability with and without drug,1.08,0.99
Ttc1,2,normal viability with and without drug,0.98,0.98
Ttc1,3,normal viability with and without drug,0.98,0.9
Ttc1,4,normal viability with and without drug,1.02,0.98
Prkar2b,1,high viability only with doxorubicin,1.12,1.04
Prkar2b,2,high viability only without drug,1.04,1.12
Prkar2b,3,normal viability with and without drug,0.82,0.99
Prkar2b,4,normal viability with and without drug,0.93,0.9
E2f2,1,normal viability with and without drug,1.06,1
E2f2,2,normal viability with and without drug,0.92,0.92
E2f2,3,normal viability with and without drug,1.09,1.02
E2f2,4,normal viability with and without drug,1.01,0.94
Runx1,1,normal viability with and without drug,1.01,1.04
Runx1,2,high viability only with doxorubicin,1.1,1.05
Runx1,3,high viability only without drug,0.9,1.16
Runx1,4,normal viability with and without drug,1.03,0.88
Gramd1a,1,low viability with and without drug,0.48,0.52
Gramd1a,2,normal viability with and without drug,0.91,0.96
Gramd1a,3,normal viability with and without drug,1,0.98
Gramd1a,4,normal viability with and without drug,1.04,1.02
Phldb2,1,normal viability with and without drug,0.86,0.9
Phldb2,2,high viability only without drug,1.03,1.16
Phldb2,3,normal viability with and without drug,0.94,0.9
Phldb2,4,normal viability with and without drug,0.97,1.04
Psmc1,1,low viability with and without drug,0.49,0.59
Psmc1,2,low viability with and without drug,0.15,0.44
Psmc1,3,low viability with and without drug,0.08,0.38
Psmc1,4,low viability with and without drug,0.22,0.5
Prpf4b,1,normal viability with and without drug,1.04,1.06
Prpf4b,2,normal viability with and without drug,1.06,0.94
Prpf4b,3,normal viability with and without drug,0.83,0.89
Prpf4b,4,normal viability with and without drug,0.84,0.94
Rassf3,1,normal viability with and without drug,0.96,1.06
Rassf3,2,normal viability with and without drug,1.01,0.97
Rassf3,3,low viability only with doxorubicin; normal without drug (active),0.68,0.94
Rassf3,4,normal viability with and without drug,1.06,0.92
Rpl35,1,low viability only with doxorubicin; normal without drug (active),0.58,0.85
Rpl35,2,low viability with and without drug,0.2,0.34
Rpl35,3,low viability only with doxorubicin; normal without drug (active),0.66,0.78
Rpl35,4,low viability with and without drug,0.26,0.5

Laid out differently: entries from further up
| Gene | reagent no. | combined effect class | viability with doxorubicin, vs NT1 | viability without drug, vs NT1 |
| --- | --- | --- | --- | --- |
| Rpl23a | 4 | low viability with and without drug | 0.31 | 0.43 |
| Cep55 | 1 | normal viability with and without drug | 0.8 | 0.9 |
| Cep55 | 2 | normal viability with and without drug | 0.96 | 0.96 |
| Cep55 | 3 | normal viability with and without drug | 0.81 | 0.91 |
| Cep55 | 4 | normal viability with and without drug | 0.82 | 1 |
| Sike1 | 1 | high viability only with doxorubicin | 1.14 | 1.02 |
| Sike1 | 2 | normal viability with and without drug | 0.88 | 0.96 |
| Sike1 | 3 | normal viability with and without drug | 0.98 | 0.96 |
